Laboratory results taken from doi:10.1101/2022.11.10.516034 (bioRxiv, 2022).
Results are given in words; binding and its absence hold for the method and conditions named.

Target: Twinkle N-terminal domain (NTD, amino acids 43-372) (human) (UniProt Q96RR1)
Assay: SEC

B1: Twinkle N-terminal domain (NTD, amino acids 43-372) (domain or fragment, UniProt Q96RR1 43-372)
chain: ETLQALDMPVLPVTATEIRQYLRGHGIPFQDGHSCLRALSPFAESSQLKGQTGVTTSFSLFIDKTTGHFLCMTSLAEGSWEDFQASVEGRGDGAREGFLLSKAPEFEDSEEVRRIWNRAIPLWELPDQEEVQLADTMFGLTKVTDDTLKRFSVRYLRPARSLVFPWFSPGGSGLRGLKLLEAKCQGDGVSYEETTIPRPSAYHNLFGLPLISRRDAEVVLTSRELDSLALNQSTGLPTLTLPRGTTCLPPALLPYLEQFRRIVFWLGDDLRSWEAAKLFARKLNPKRCFLVRPGDQQPRPLEALNGGFNLSRILRTALPAWHKSIVSFRQ
Question: With B1 as the binder, how does the binding read?
Answer: no binding (tested: ~80 µM)
